# Experimental data taken from the supplement of paper PMC4635364.
# Counter-ions that a name gives are not always drawn. Some of the results follow. Single values are uncertain here, since repeats match poorly.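 Cells: ReNCell VM human fetal ventral-midbrain neural progenitors, differentiated mitogen-free. Blinded raters compared doublecortin-stained (early neurons) or tyrosine hydroxylase-stained (dopaminergic neurons) images with untreated wells, where 0 means no change. After repeats and both raters were averaged, compounds scoring 2 or above became hits for retesting.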
# System: ReNCell VM
# Test: neuronal differentiation score (DCX+ cell fraction vs untreated, manual image score) (score (-3 to 3)); higher = more neuronal differentiation
# Conditions: library: Prestwick; 2 uM; 2 weeks
row,Structure (SMILES),neuronal differentiation score
1,CCOC(=O)OC(C)OC(=O)[C@@H]1N2C(=O)[C@@H](NC(=O)[C@H](N)c3ccccc3)[C@H]2SC1(C)C (stereo partly drawn) [Bacampicillin hydrochloride],inactive: 0
2,O=C1OCCN1/N=C/c1ccc([N+](=O)[O-])o1 [Furazolidone],inactive: 0
3,CC(=O)CC(c1ccccc1)c1c(O)c2ccccc2oc1=O (stereo not drawn) [Warfarin],inactive: 0
4,COc1ccc2c(c1)c(CC(=O)OCC(=O)O)c(C)n2C(=O)c1ccc(Cl)cc1 [Acemetacin],inactive: 0
5,Cc1onc(-c2ccccc2Cl)c1C(=O)N[C@@H]1C(=O)N2[C@@H]1SC(C)(C)[C@@H]2C(=O)O [Cloxacillin sodium salt],inactive: 0
6,"c1ccc(CNc2ncnc3nc[nH]c23)cc1 [Aminopurine, 6-benzyl]",inactive: 0
7,Cc1ncc([N+](=O)[O-])n1CCO [Metronidazole],inactive: 0

# Same assay, conditions: library: Spectrum; 2 uM; 2 weeks
row,Structure (SMILES),neuronal differentiation score
1,CCNC(=O)CC[C@H](N)C(=O)O,inactive: 0
2,COCC1=C(C(=O)OC(C)OC(=O)OC(C)C)N2C(=O)[C@@H](NC(=O)/C(=N\OC)c3csc(N)n3)[C@H]2SC1 (stereo partly drawn),inactive: 0
3,C#C[C@]1(O)CC[C@H]2[C@@H]3CCC4=CC(=O)CC[C@@H]4[C@H]3CC[C@@]21C,inactive: 0
4,CC(=O)OCC(=O)[C@@]1(O)[C@H](C)C[C@H]2[C@@H]3CCC4=CC(=O)C=C[C@]4(C)[C@@]3(F)[C@@H](O)C[C@@]21C,inactive: 0
5,COc1ccc2c(c1)OCC(Cc1ccc(OC)c(OC(C)=O)c1)C2=O (stereo not drawn),inactive: 0
6,COc1ccc([C@H]2Oc3cc(OC)cc(OC)c3C[C@H]2O)cc1,inactive: 0
7,COC(=O)[C@H]1[C@H]2C[C@@H]3c4[nH]c5cc(OC)ccc5c4CCN3C[C@H]2C[C@@H](OC(=O)c2cc(OC)c(OC)c(OC)c2)[C@@H]1OC,inactive: 0
8,CCCCCCCCCCCCCCCC(=O)OC[C@H](O)[C@H]1OC(=O)C(O)=C1O,inactive: 0
9,CN1C(C(=O)Nc2ccccn2)=C(O)c2sccc2S1(=O)=O,inactive: 0
10,CCCc1cc(=O)[nH]c(=S)[nH]1,inactive: 0
11,O=c1[nH]cc(F)c(=O)[nH]1,inactive: 0
12,COc1ccc2cc1Oc1ccc(cc1)C[C@H]1c3c(cc4c(c3Oc3cc5c(cc3OC)CCN(C)[C@@H]5C2)OCO4)CCN1C,inactive: 0
13,S=P(N1CC1)(N1CC1)N1CC1,inactive: 0
14,CC(C(=O)O)c1cccc(Oc2ccccc2)c1 (stereo not drawn),inactive: 0
15,C[C@]12CCC(=O)C=C1CC[C@@H]1[C@@H]2[C@@H](O)C[C@@]2(C)[C@H]1CC[C@]2(O)C(=O)COP(=O)(O)O,inactive: 0
16,C[C@]1(Cn2ccnn2)[C@H](C(=O)O)N2C(=O)C[C@H]2S1(=O)=O,inactive: 0
17,O=C(O)/C=C/C(=O)O,inactive: 0
18,CO[C@H]1C[C@H](O[C@@H]2/C(C)=C/C[C@@H]3C[C@@H](C[C@]4(CC[C@H](C)[C@@H](C5CCCCC5)O4)O3)OC(=O)[C@@H]3C=C(C)/C(=N/O)[C@H]4OC/C(=C\C=C\[C@@H]2C)[C@]43O)O[C@@H](C)[C@@H]1O,inactive: 0
19,Cc1ccccc1N1C(=O)c2cc(S(N)(=O)=O)c(Cl)cc2NC1C (stereo not drawn),inactive: 0
20,CCCOc1ccc2[nH]c(NC(=O)OC)nc2c1,inactive: 0
21,CO/N=C1\CN(c2nc3c(cc2F)c(=O)c(C(=O)O)cn3C2CC2)CC1CN (stereo not drawn),inactive: 0
22,CN1CCN(CC(=O)N2c3ccccc3C(=O)Nc3cccnc32)CC1,inactive: 0
23,O=c1c(O)c(-c2ccc(O)cc2O)oc2cc(O)cc(O)c12,inactive: 0
24,Cc1nc(C)c(Cl)c(O)c1Cl,inactive: 0
25,COc1ccc([C@@H]2CC(=O)c3c(O)cc(O)cc3O2)cc1O,inactive: 0
26,CCOC(=O)CC(=O)N1CCSC1COc1ccccc1OC (stereo not drawn),inactive: 0

# Same assay, conditions: library: Tocriscreen; 2 uM; 2 weeks
row,Structure (SMILES),neuronal differentiation score
1,CC#CCOC(=O)C1=CCCN(C)C1 [Arecaidine but-2-ynyl ester tosylate],inactive: 0
2,O=c1nc2ccccc2c2n1CC(CN1CCN(c3ccccc3)CC1)N2 (stereo not drawn),inactive: 0
3,CC(C)NCC(O)COc1ccccc1-n1cccc1 (stereo not drawn) [Isamoltane hemifumarate],inactive: 0

# System: ReNCell VM
# Test: dopaminergic neuron differentiation score (TH+ cell fraction vs untreated, manual image score) (score (0 to 3)); higher = more TH+ dopaminergic neuron differentiation
# Conditions: library: Prestwick; 2 uM; 4 weeks; BDNF 10 ng/ml + GDNF 10 ng/ml
row,Structure (SMILES),dopaminergic neuron differentiation score
1,CCOC(=O)OC(C)OC(=O)[C@@H]1N2C(=O)[C@@H](NC(=O)[C@H](N)c3ccccc3)[C@H]2SC1(C)C (stereo partly drawn) [Bacampicillin hydrochloride],inactive: 0
2,O=C1OCCN1/N=C/c1ccc([N+](=O)[O-])o1 [Furazolidone],inactive: 0
3,CC(=O)CC(c1ccccc1)c1c(O)c2ccccc2oc1=O (stereo not drawn) [Warfarin],inactive: 0
4,COc1ccc2c(c1)c(CC(=O)OCC(=O)O)c(C)n2C(=O)c1ccc(Cl)cc1 [Acemetacin],inactive: 0
5,Cc1onc(-c2ccccc2Cl)c1C(=O)N[C@@H]1C(=O)N2[C@@H]1SC(C)(C)[C@@H]2C(=O)O [Cloxacillin sodium salt],inactive: 0
6,"c1ccc(CNc2ncnc3nc[nH]c23)cc1 [Aminopurine, 6-benzyl]",inactive: 0
7,Cc1ncc([N+](=O)[O-])n1CCO [Metronidazole],inactive: 0

# Reformatted as tab-separated lines: 2 of the compounds above
row	Structure (SMILES)	dopaminergic neuron differentiation score
5	Cc1onc(-c2ccccc2Cl)c1C(=O)N[C@@H]1C(=O)N2[C@@H]1SC(C)(C)[C@@H]2C(=O)O [Cloxacillin sodium salt]	inactive: 0
6	c1ccc(CNc2ncnc3nc[nH]c23)cc1 [Aminopurine, 6-benzyl]	inactive: 0
